PubChem BioAssay AID540275 (National Center for Advancing Translational Sciences (NCATS), 2011)
Out of some 320,000 compounds screened, about 620 (0.19%) were called active. This list was built around the results that the source calls inconclusive (neither active nor inactive); the mix of calls is not that of the screen. Cut-off read from the data, not from the text of the source: active = activation above about 80%; inconclusive = between about 30% and that limit; inactive = weaker than that.

Chains of the proteins cited; added tags and fusions are not shown.
UniProt Q8NER1, whole entry, looked up: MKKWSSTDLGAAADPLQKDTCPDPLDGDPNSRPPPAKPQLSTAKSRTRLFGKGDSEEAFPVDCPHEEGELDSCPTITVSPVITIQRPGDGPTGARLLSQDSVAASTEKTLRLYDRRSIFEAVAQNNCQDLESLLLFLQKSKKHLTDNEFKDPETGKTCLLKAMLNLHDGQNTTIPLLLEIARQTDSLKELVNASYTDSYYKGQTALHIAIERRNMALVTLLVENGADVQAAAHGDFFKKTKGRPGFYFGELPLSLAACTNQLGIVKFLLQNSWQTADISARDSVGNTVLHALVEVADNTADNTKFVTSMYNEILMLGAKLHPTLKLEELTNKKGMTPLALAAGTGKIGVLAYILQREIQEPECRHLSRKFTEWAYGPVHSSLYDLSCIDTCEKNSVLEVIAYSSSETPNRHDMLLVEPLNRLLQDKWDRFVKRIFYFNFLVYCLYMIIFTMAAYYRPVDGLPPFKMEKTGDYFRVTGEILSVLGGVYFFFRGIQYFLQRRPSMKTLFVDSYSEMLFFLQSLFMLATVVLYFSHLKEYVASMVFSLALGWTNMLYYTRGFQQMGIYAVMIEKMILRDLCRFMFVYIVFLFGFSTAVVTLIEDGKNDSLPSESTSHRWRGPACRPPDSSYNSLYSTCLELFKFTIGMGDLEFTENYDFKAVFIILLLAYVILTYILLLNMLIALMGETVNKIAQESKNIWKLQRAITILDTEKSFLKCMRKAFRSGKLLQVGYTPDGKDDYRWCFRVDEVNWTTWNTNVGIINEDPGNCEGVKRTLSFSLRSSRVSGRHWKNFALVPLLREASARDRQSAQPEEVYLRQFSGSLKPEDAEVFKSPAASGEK

target: Transient receptor potential cation channel subfamily V member 1 (Homo sapiens) (UniProt Q8NER1); assay: HTS Assay for Compounds that Act as Agonists of the Vanilloid Receptor 1; settings: TRPV1-expressing cells, Fluo-8 calcium influx, agonist mode; at 8.33 µM, hits give high values; note: 0% is about no effect
Text: The transient receptor potential ion channel, family V, number 1, (TRPV1) is one of the most important molecular transducers of painful stimuli and a potential target for analgesic drug development. Although recent clinical trials with orthosteric antagonists have not produced a successful drug because of a hyperthermia side effect and their tendency to block thermal noxious pain, this ion channel is undeniably well placed in the pain pathway, and the idea of blocking pain signals before they enter the CNS is an excellent concept and of proven efficacy when TRPV1 agonists are used. We propose a new approach involving allosteric modulation to impose an activity-dependent constraint within the context of inflammation and tissue damage that would alter the responsiveness of the channel in a way that an orthosteric vanilloid antagonist cannot achieve. We believe that the allosteric modulator approach has not been explored for this target. The main goal of this proposal is to identify additional, new, potent allosteric modulators of TRPV1 that can be used to investigate TRPV1 function. Our recent report provides evidence of proof of concept, but the compounds are just at the edge of utility in terms of potency. […] The question of whether they can be used as analgesic agents is complex, but if suitable compounds are identified then testing for analgesic properties will be conducted. NIH Chemical Genomics Center [NCGC] NIH Molecular Libraries Probe Centers Network [MLPCN] MLPCN Grant: MH089480-1A1 Assay Submitter (PI): Michael Iadarola, National Institute of Dental and Cranofacial Research
Upon TRPV1 activation in TRPV1 cells, the channel opens and extracellular cations flow through the channel into the cytosol. A calcium binding dye (Fluo-8) becomes fluorescent when bound to calcium. This dye is pre-loaded into cells and is used as a marker for calcium influx. The amount of accumulated calcium is precisely quantified using the FDSS kinetic reader and the calcium dye. For the HTS assay, freshly prepared cells are plated at a density of 2000/well in 3 ul medium in 1536-well plates and cultured overnight at 35.5C. Cells will be loaded with 1 ul of the homogeneous calcium dye (ABD Bioquest) at room temperature for 40 to 90 minutes. Plates will be loaded into the FDSS kinetic reader and a 1 sec / cycle for 10 second baseline signal will be measured. Compound library will then be added with a pintool at 23 nl and measured kinetically for 3 minutes. This portion of the read is considered the agonist portion of the screen. Following the 3 minutes of incubation, an on board pipettor will deliver 1 ul of capsaicin for a final concentration equal to the EC20. Signal will be measured kinetically for an additional 2 minutes. This portion of the read is considered the allosteric enhancer portion of the screen. The FDSS reader has a standard filter set capable of measuring calcium bound Fluo-8 (ex=480 and em=520 nm).

| Structure (SMILES) | activation |
| --- | --- |
| Cc1ccc(C)c(OC(=O)c2cccc(S(=O)(=O)N3CCN(C)CC3)c2)c1 | inactive: 18.2% |
| O=c1c2ccccc2c(C=NCCCN2CCOCC2)c(O)n1Cc1ccccc1 | inconclusive: 39.4% |
| COc1ccccc1Oc1ccc(NC(=O)c2ccccc2)cc1 | inconclusive: 51.7% |
| O=C(NC1CCCCC1)c1ccc(S(=O)(=O)c2ccccc2Cl)c([N+](=O)[O-])c1 | inconclusive: 62.1% |
| O=c1c2c(nc(NCCO)n1CC1CCCCC1)-c1ccccc1CC21CCCC1 | inconclusive: 30.4% |
| COc1ccc(-c2ccc(-c3nnc(Cc4ccc(OC)c(OC)c4)o3)cc2)cc1 | inactive: 16.8% |
| CC1Oc2ccccc2N(CC(=O)c2ccc(F)cc2)C1=O (stereo not given) | inconclusive: 34.5% |
| O=C(c1nnc(Cc2ccc(Cl)cc2)o1)N1CCOCC1 | inconclusive: 30.8% |
| CC1(COS(N)(=O)=O)CCCCC1 | inactive: 6.38% |
| Cc1cc(NC(=O)c2ccccc2)n(-c2nc3ccccc3[nH]2)n1 | inconclusive: 38.1% |
| COc1ccc(OC)c(C2CC(c3ccccc3)=NN2C(=S)Nc2ccccc2)c1 (stereo not given) | inactive: 1.28% |
| S=C(NCc1ccccc1)NCc1ccccc1Cl | inconclusive: 66.1% |
| N#Cc1c(/N=C/N2CCCC2)oc(-c2ccccc2)c1-c1ccccc1 | inconclusive: 60.7% |
| Cc1ccc(CNC(=O)CSCc2ccccc2)cc1 | inconclusive: 44% |
| CCCn1nc(NC(=O)c2ccncc2)c2cc3ccccc3nc21 | inconclusive: 63.8% |
| CC1CCN(c2ccc(C=O)o2)CC1 | inactive: -4.23% |
| Cc1ccc(NC(=O)C(=O)Nc2ccccn2)cc1 | inactive: 27% |
| O=C1CN(C(=O)COC(=O)c2cccc(S(=O)(=O)NCc3ccccc3)c2)c2ccccc2N1 | inactive: -0.507% |
| NC(=O)COc1ccc(/C=C2\C(=O)ON=C2c2ccccc2)cc1 | inactive: -1.88% |
| CCC1(CC)Cc2ccccc2-c2nc(-c3ccccc3)oc(=O)c21 | inconclusive: 35.9% |
| C=CCc1c(C)nc(-c2ccccc2)nc1Nc1ccc(O)cc1 | inconclusive: 33.2% |
| COc1cccc(NC(=O)NC2CCCc3ccccc32)c1 (stereo not given) | inconclusive: 44.2% |
| NC(=O)c1ccc(NC(=O)COC(=O)c2c3c(nc4ccccc24)/C(=C\c2ccc4c(c2)OCO4)CCC3)cc1 | inconclusive: 70.3% |

| Structure (SMILES) | activation |
| --- | --- |
| CC(CCn1cccn1)NC(=O)c1cc(COc2ccc(F)cc2F)on1 (stereo not given) | inactive: -5.94% |
| CCOc1nc(Nc2ccc(OC)cc2)nc(OCC)n1 | inconclusive: 35.9% |
| Cc1cccc(C)c1OCC(=O)Nc1ccc2c(c1)C(=O)NC2=O | inconclusive: 50.9% |
| Cc1cc(Cl)ccc1OCCCC(=O)Nc1cccnc1 | inconclusive: 70% |
| CN(CC(=O)NCc1ccc(F)cc1)Cc1cccc(Cl)c1 | inconclusive: 65.1% |
| Cc1ccc(OCCCC(=O)NCc2ccco2)c(C)c1 | inconclusive: 30.7% |
| Cc1ccc(NC(=O)c2ccc(C)c(S(=O)(=O)N3CCOCC3)c2)nc1 | inconclusive: 53.9% |
| Cc1ccc(-c2ccc(=O)n(Cc3c(F)cccc3Cl)n2)cc1 | inconclusive: 63.9% |
| O=C(Nc1cccc2nsnc12)c1ccc(F)cc1 | inconclusive: 35% |
| CCCCOC(=O)Nc1ccc(C(N)=O)cc1 | inactive: 12.3% |
| Brc1ccc(-c2cnnc(N3CCCC3)n2)cc1 | inconclusive: 52.1% |
| Cc1ccc(C(=O)C(C)OC(=O)CN2C(=O)NC3(CCCC3)C2=O)cc1C (stereo not given) | inconclusive: 75.7% |
| O=C(NC(=S)Nc1ccccc1N1CCOCC1)c1ccco1 | inactive: 15.4% |
| Oc1ccc(-c2csc(-c3c[nH]c4ccccc34)n2)c(O)c1 | inactive: 0.299% |
| Cc1cc(C)n(-c2ccc(S(=O)(=O)N3CCOCC3)cc2[N+](=O)[O-])n1 | inactive: 5.51% |
| Cc1ccc(S(=O)(=O)N2CCCCC2)cc1C(=O)NCCC1=CCCCC1 | inconclusive: 36.3% |
| CCOC(=O)C1CCN(c2cc(C)nc3ccc(OC)cc23)CC1 | inconclusive: 46.7% |
| COc1ccc(-c2noc(N3CCC(C(=O)Nc4cccc(OC)c4)CC3)n2)cc1 | inconclusive: 71.1% |
| Cc1cccc(N2CCN(C(=O)COc3ccc4c(c3)CCC4)CC2C)c1 (stereo not given) | inconclusive: 51.4% |
| CC12Cc3ccc4ccccc4c3C=C1C[N+](C)(C)C2 (stereo not given) | inactive: -0.69% |
| N#Cc1nc(-c2ccc(F)cc2)oc1NCc1ccccc1 | inconclusive: 54.4% |
| COc1ccc(/C=C(\NC(=O)c2ccc(C)cc2)C(=O)NCCCn2ccnc2)cc1 | inactive: 0.664% |
| Fc1ccccc1CCNc1nnnn1-c1ccccc1 | inconclusive: 60.4% |

| Structure (SMILES) | activation |
| --- | --- |
| Cc1ccccc1CN1CCN(CC(=O)NC(C)c2ccccc2)CC1 (stereo not given) | inconclusive: 58.8% |
| CN(C)S(=O)(=O)c1cccc(NC(=O)CCc2nc3cc(S(=O)(=O)N4CCOCC4)ccc3n2C)c1 | inactive: 1.21% |
| COc1ccccc1N1CCN(C(=O)/C=C/c2cccs2)CC1 | inactive: 6.93% |
| CC(C)CC(NC(=O)C1CCC(C)CC1)C(=O)Nc1ccccc1F (stereo not given) | inactive: 25.4% |
| COc1ccc(/C=C2\SC(N3CCc4ccccc4C3)=NC2=O)cc1 | inconclusive: 61.9% |
| CCN(CC)c1ccc(NC(=O)Nc2ccccc2)cc1 | inconclusive: 75.9% |
| COc1ccc(S(=O)(=O)N2CCN(Cc3ccc(Cl)cc3)CC2)cc1 | inactive: 6.2% |
| Cc1ccc(-c2nnn(CCC(=O)Nc3ccc4c(c3)OCO4)n2)cc1 | inconclusive: 32.3% |
| COc1cccc(-c2cc(C(=O)N3CCc4ccccc4C3)no2)c1 | inconclusive: 37% |
| Cc1ccc(C(=O)c2c3ccc(C(F)(F)F)cc3[n+]([O-])n2CCCC(N)=O)cc1 | inconclusive: 53.8% |
| CN1CCN(c2ccc(Cl)cc2NC(=O)c2cccc(S(=O)(=O)N(C)C)c2)CC1 | inactive: 7.4% |
| O=C(COC(=O)c1cn(-c2ccccc2)nc1-c1cccs1)NC1CC1 | inconclusive: 51.1% |
| Cc1cc(C)cc(NC(=S)N2CCC(c3nc4ccccc4s3)CC2)c1 | inconclusive: 30.3% |
| Cc1ccc(-c2nc(C=Nc3cccc(C)c3)c(O)o2)cc1 | inconclusive: 36.7% |
| COc1ccc(N2CCN(C(=O)CCc3c[nH]c4ccccc34)CC2)cc1 | inactive: 17% |
| O=C(NNC(=O)c1n[nH]c(=O)c2ccccc12)c1ccc(Br)cc1 | inactive: -2.79% |
| Cc1ccc(C)c(N2CCN(C(=O)CCS(=O)(=O)c3ccc4c(c3)NC(=O)CO4)CC2)c1 | inconclusive: 76.3% |
| COc1ccc(-n2cnc3cc(NCc4ccco4)ccc32)cc1 | inconclusive: 39.7% |
| Cc1cc(NC(=O)c2cc(-c3ccccn3)nc3ccccc23)no1 | inactive: 0.3% |
| CCOC(=O)c1c(N2C(=O)C3C4C=CC(O4)C3C2=O)sc2c1CCCC2 (stereo not given) | inactive: -1.47% |
| CCOC(=O)c1ccc(NC(=O)N2CCc3ccccc3C2)cc1 | inconclusive: 58.4% |
| O=C(Nc1ccc(F)cc1)Nc1cc(OCC(F)(F)F)cc(OCC(F)(F)F)c1 | inconclusive: 79.3% |
| O=C(CSc1nc2ccccc2c(=O)n1Cc1ccco1)Nc1cccc(O)c1 | inconclusive: 74.4% |

| Structure (SMILES) | activation |
| --- | --- |
| COc1ccc(C2=CC(=O)C[C@H](c3ccc(Cl)cc3)C2)cc1 | inconclusive: 41.9% |
| Cc1cc(C(=O)CCC(=O)N2CCN(c3ccccc3O)CC2)c(C)s1 | inconclusive: 38.8% |
| CC(NC(=O)COc1ccc(N(C)S(=O)(=O)c2ccccc2)cc1)c1ccccc1 (stereo not given) | inconclusive: 30.6% |
| CCSCc1nnc(SCC(=O)Nc2nccs2)n1CC | inactive: -1.8% |
| CCNC(=O)NC(=O)C(C)OC(=O)c1oc2ccc(OCC)cc2c1C (stereo not given) | inconclusive: 38.6% |
| CC(C)CNC(=O)c1ccccc1NC(=O)c1ccccc1N(C)S(=O)(=O)c1ccccc1 | inconclusive: 35.5% |
| CCOC(=O)[C@@H]1CCN(Cc2ccccc2)C[C@H]1c1ccccc1 | inconclusive: 30.2% |
| O=C(O)c1cccc(-n2cccc2/C=C2/NC(=O)N(c3cccc(Cl)c3)C2=O)c1 | inactive: -5.75% |
| Cn1nnnc1SCC(=O)NCC(=O)c1ccccc1 | inactive: 1.2% |
| O=C1c2ccccc2C(=O)N1CCCCSc1nc2ccccc2o1 | inconclusive: 43.4% |
| Cc1ccc(NC(=O)c2ccccn2)cc1S(=O)(=O)N1CCOCC1 | inconclusive: 36.4% |
| Cn1cc(C(=O)NC2CCCCC2)c(=O)c2cc(S(=O)(=O)N3CCOCC3)ccc21 | inconclusive: 76.9% |
| O=C(NN=C1C2CC3CC(C2)CC1C3)c1cccc(S(=O)(=O)N2CCOCC2)c1 | inconclusive: 31.5% |
| O=C(NC1CCN(C(=O)N2c3ccccc3Sc3ccccc32)CC1)c1ccco1 | inconclusive: 30.8% |
| O=C(COC(=O)c1cc(S(=O)(=O)N2CCCCC2)ccc1N1CCOCC1)c1ccc(F)cc1 | inactive: 1.38% |
| COc1cccc(NC(=S)NCc2ccc(F)cc2)c1 | inconclusive: 53.4% |
| COc1ccc(NC(=O)CCC(=O)c2cc(C)sc2C)cc1 | inconclusive: 45.2% |
| O=C(CNS(=O)(=O)c1cccc(Br)c1)NCC1CCCCC1 | inconclusive: 57.6% |
| Cc1ccc2c(c1)C(c1ccccc1)N(C(=O)c1c(F)cccc1Cl)CC(=O)N2 (stereo not given) | inconclusive: 58.3% |
| C=CCOC(=O)C1=C[C@@H](c2coc3ccccc3c2=O)C[C@@H](OCc2ccc(CO)cc2)O1 | inconclusive: 43.3% |
| CSc1ccc(C(=O)C2CCCN(C(=O)c3cccc(N4CCOCC4)c3)C2)cc1 (stereo not given) | inconclusive: 30.5% |

Quoted at random: 5 records from the list, in no set order.

| Structure (SMILES) | activation |
| --- | --- |
| CCCn1nc(NC(=O)c2ccncc2)c2cc3ccccc3nc21 | inconclusive: 63.8% |
| Cc1ccc(C(=O)c2c3ccc(C(F)(F)F)cc3[n+]([O-])n2CCCC(N)=O)cc1 | inconclusive: 53.8% |
| CCC1(CC)Cc2ccccc2-c2nc(-c3ccccc3)oc(=O)c21 | inconclusive: 35.9% |
| COc1cccc(NC(=S)NCc2ccc(F)cc2)c1 | inconclusive: 53.4% |
| CCOC(=O)c1ccc(NC(=O)N2CCc3ccccc3C2)cc1 | inconclusive: 58.4% |
